The list shows a part of the results. Further columns of the screen follow, without active or inactive calls. Compounds called inactive in the main read-out are mostly missing here. Words in brackets tell the shape of the fitted curve; partial curves, single points and poor fits give uncertain potencies.

Our source for the cell number change and AC50 values is PubChem BioAssay AID2685 (National Center for Advancing Translational Sciences (NCATS), 2010).

This test can be described thus: qHTS Assay for Lipid Storage Modulators in Drosophila S3 Cells.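 As to cell number change: cells counted by Cell Tracker Red CMTPX staining in the red channel.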 As to conditions: BODIPY lipid droplet fluorescence, 18-24 h; for cell number change: measured here: cell count max response, cells fed with added oleic acid. In short, it runs like this:
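Drosophila S3 cells got compounds at several concentrations plus oleic acid (400 uM solution). Laser-scanning cytometry with 488 nm excitation read lipid droplets at 500-530 nm and cells at 575-640 nm. Percent activity was relative to 20 uM Triacsin C.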
In general terms: In qHTS, concentration-response curves come from the screen itself.

Where [1] appears, read: measured here: lipid fluorescence (Fed channel) AC50, cells fed with added oleic acid.
The mark [2] stands for this setting: measured here: cell number channel AC50, cells fed with added oleic acid.

On to `O=C(COC(=O)Cn1cnc2ccccc21)NCCc1ccccc1`, for which the cell number change is -8.01%. Also, under setting [1], the AC50 is 0.184 µM [falling, full curve, poor fit].

With `Cc1ccc(N2CC(C(=O)Nc3ccc(S(=O)(=O)N4CCCC4)cc3)CC2=O)cc1` (configuration not stated), the cell number change is -9.64%. Moreover, under setting [1], the AC50 is 5.8 µM [falling, full curve, poor fit].

In the case of `CCOc1ccc2[nH]cc(C(=O)NCc3ccc(F)cc3)c(=O)c2c1`, the cell number change was 3.16%.

For `COCC(=O)N1CCCc2ccccc21`, the cell number change amounted to 17.3%. Further, under setting [1], the AC50 was 16.4 µM [rising, single point].

Regarding `CC1CC(C)CN(CCCNC(=O)c2c(O)nc3ccccn3c2=O)C1` (configuration not stated), the cell number change was -10%.

`CCC(CC)c1nn2c(N)c(/C=C3\C=Nc4ccccc43)c(=O)nc2s1`: the cell number change is -29.3%. Under setting [1], the AC50 is 0.00651 µM [falling, full curve, poor fit].

In the case of `CC(=O)OCCCNc1cc(Sc2ccc(Cl)cc2)c2nonc2c1[N+](=O)[O-]`, the cell number change is -24.5%. The AC50 under setting [2] is 4.61 µM [falling, full curve, poor fit]. For the same compound, the AC50 under setting [1] was 4.61 µM [falling, full curve].

As for `O=C1OC(Nc2ccc3c(c2)OCO3)c2ccccc21` (configuration not stated), the cell number change was determined as 9.68%. The AC50 under setting [1] was 6.51 µM [rising, single point].

As for `COC(=O)c1ccccc1COn1c(=O)c(C)[n+]([O-])c2ccccc21`, the cell number change was -5.22%.

Take `COC(=O)c1cc(C(=O)NCCN2C(=O)S/C(=C\c3cccs3)C2=O)cc([N+](=O)[O-])c1`: the AC50 under setting [1] was 9.2 µM [rising, partial curve, poor fit].

For `O=C(CCNC(=O)N1CC(=O)Nc2ccccc21)NCc1ccc(F)cc1`, the cell number change is -12.5%. For the same compound, the AC50 under setting [2] was 0.82 µM [rising, single point].

Consider `Cc1ccc(Nc2nnc(SCC(=O)c3ccc(O)cc3O)s2)cc1`, for which the cell number change is -14.5%. In addition, the AC50 under setting [1] is 1.41 µM [rising, partial curve].

With `O=C1/C(=C/Nc2cccc([N+](=O)[O-])c2)CCc2ccccc21`, the cell number change is 25.9%.

Regarding `Cc1ccc(CN2CCC(n3nccc3NC(=O)c3ccc4c(c3)OCO4)CC2)o1`, the cell number change is -4.95%. For the same compound, under setting [2], the AC50 is 2.59 µM [rising, single point]. For the same compound, under setting [1], the AC50 is 29.1 µM [rising, single point].

Turning to `O=C(O)c1ccc(COc2cccc(CO)c2)cc1`, the cell number change is -2.97%.

With `CCCNc1nc2c(c(=O)n(C)c(=O)n2C)n1Cc1cccc(C)c1`, the cell number change was -42.6%. The AC50 under setting [2] is 4.11 µM [falling, partial curve]. For the same compound, the AC50 under setting [1] is 20.6 µM [falling, partial curve].

Consider `CC1(C)CC(=O)C2=C(C1)N=C1c3ccccc3C(=O)C1C2c1ccc(Cl)cc1` (configuration not stated), for which the cell number change was -6.18%. Also, under setting [2], the AC50 is 2.06 µM [rising, partial curve]. In addition, the AC50 under setting [1] was 0.092 µM [rising, full curve].

What is called AC50 is the concentration giving half of the maximal activity seen.
